In PubChem BioAssay AID248 (DTP/NCI, 2004):
The list shows only some results of the screen, not a fair sample: it is rich in T/C values a quarter to a half above the control, in often repeated tests (any T/C) and in doses without a T/C. Further doses and runs are listed elsewhere. T/C is the treated group as % of the vehicle group. Some doses have a count of surviving animals in place of a T/C: the source holds a T/C of zero for them, seemingly a mark for toxic or unscored doses. Some survivor counts are full or nearly so, which does not show that the dose was tolerated: survival well below the control is almost never listed, so the zero probably covers shortened survival too. Counts of survivors are from the toxicity check (mostly the fifth day) where no day follows; animals may have died later. Schedule codes are those of the source, taken here to give the interval after Q, in days (D) or hours (H), and the number of doses after X. Some doses were run more than once; the values are given in rising order. Some schedules carry Z or #; the key to these is not given. Where survival is the endpoint, the PubChem record calls one and a half times the control and up active, and a quarter to a half above the control has no call in these data; cut-offs in other NCI protocols can differ. Marks such as (2×) say how often a value occurs here. Some T/C values are followed by the survivors on the day toxicity was checked, most often the fifth; where none is given, no animal had died by that day.

Test system: L1210 leukemia ip in BDF1 mice, survival T/C
Assay: NCI In Vivo Anticancer Drug Screen. Data for tumor model L1210 Leukemia (intraperitoneal) in B6D2F1 (BDF1) mice
Conditions: T/C endpoint: mean survival time, higher T/C = longer survival
[1] = dose: 250.0 mg/kg/injection, schedule: Q01DX005 (ip), vehicle: clinical formulation

CN(C)/N=N/c1nc[nH]c1C(N)=O was tested, and the T/C (dose: 105.0 mg/kg/injection, schedule: Q01DX015 (ip), vehicle: carboxymethylcellulose (CMC), evaluated on day 45) was 140 % of control, the T/C (dose: 108.0 mg/kg/injection, schedule: Q01DX009 (ip), vehicle: steroid suspending solution) was 134 % of control (2×) and the T/C (dose: 108.0 mg/kg/injection, schedule: Q01DX019 (ip), vehicle: steroid suspending solution, evaluated on day 5) was 143 % of control. The T/C (dose: 108.0 mg/kg/injection, schedule: Q01DX019 (ip), vehicle: steroid suspending solution, evaluated on day 30) was 139 % of control, the T/C (dose: 108.0 mg/kg/injection, schedule: Q01DX Z (ip), vehicle: steroid suspending solution, evaluated on day 33) was 134 % of control and the T/C (dose: 108.0 mg/kg/injection, schedule: Q01DX Z (ip), vehicle: steroid suspending solution, evaluated on day 41) was 134 % of control. The T/C (dose: 108.0 mg/kg/injection, schedule: Q02DX010 (ip), vehicle: steroid suspending solution, evaluated on day 5) was 134 % of control, the T/C (dose: 108.0 mg/kg/injection, schedule: Q02DX010 (ip), vehicle: steroid suspending solution, evaluated on day 30) was 131 % of control and the T/C (dose: 108.0 mg/kg/injection, schedule: Q## X009 (ip), vehicle: steroid suspending solution) was 126 % of control. For the same compound, the T/C (dose: 116.0 mg/kg/injection, schedule: Q04DX002 (ip), vehicle: carboxymethylcellulose (CMC)) was 110, 111, 112, 120 % of control, the T/C (dose: 120.0 mg/kg/injection, schedule: Q01DX Z (ip), vehicle: saline) was 148 % of control and the T/C (dose: 125.0 mg/kg/injection, schedule: Q01DX001 (ip), vehicle: saline with Tween-80) was 125 % of control. For the same compound, the T/C (dose: 125.0 mg/kg/injection, schedule: Q01DX005 (ip), vehicle: clinical formulation) was 98, 141, 150, 154, 162 (2×), 163, 169 % of control, the T/C (dose: 125.0 mg/kg/injection, schedule: Q01DX Z (ip), vehicle: carboxymethylcellulose (CMC)) was 143 % of control and the T/C (dose: 128.0 mg/kg/injection, schedule: Q01DX005 (ip), vehicle: water) was 133 % of control. For the same compound, the T/C (dose: 137.0 mg/kg/injection, schedule: Q01DX001 (ip), vehicle: carboxymethylcellulose (CMC)) was 131 % of control, the T/C (dose: 150.0 mg/kg/injection, schedule: Q01DX001 (ip), vehicle: carboxymethylcellulose (CMC)) was 135 % of control and the T/C (dose: 150.0 mg/kg/injection, schedule: Q01DX009 (ip), vehicle: carboxymethylcellulose (CMC), evaluated on day 5) was 142 % of control. The T/C (dose: 150.0 mg/kg/injection, schedule: Q01DX009 (ip), vehicle: carboxymethylcellulose (CMC), evaluated on day 45) was 142 % of control, the T/C (dose: 150.0 mg/kg/injection, schedule: Q01DX009 (ip), vehicle: saline with Tween-80) was 136 % of control and the T/C (dose: 150.0 mg/kg/injection, schedule: Q01DX Z (ip), vehicle: carboxymethylcellulose (CMC)) was 130 % of control [5 of 6 alive]. The T/C (dose: 157.0 mg/kg/injection, schedule: Q01DX015 (ip), vehicle: carboxymethylcellulose (CMC), evaluated on day 5) was 139 % of control, the T/C (dose: 157.0 mg/kg/injection, schedule: Q01DX015 (ip), vehicle: carboxymethylcellulose (CMC), evaluated on day 45) was 139 % of control and the T/C (dose: 178.0 mg/kg/injection, schedule: Q01DX005 (ip), vehicle: water, evaluated on day 5) was 144 % of control. The T/C (dose: 178.0 mg/kg/injection, schedule: Q01DX005 (ip), vehicle: water, evaluated on day 30) was 144 % of control, the T/C (dose: 180.0 mg/kg/injection, schedule: Q01DX009 (ip), vehicle: steroid suspending solution) was 148 and 149 % of control and the T/C (dose: 180.0 mg/kg/injection, schedule: Q01DX019 (ip), vehicle: steroid suspending solution) was 149 % of control. For the same compound, the T/C (dose: 180.0 mg/kg/injection, schedule: Q01DX Z (ip), vehicle: carboxymethylcellulose (CMC)) was 142 % of control, the T/C (dose: 180.0 mg/kg/injection, schedule: Q01DX Z (ip), vehicle: steroid suspending solution) was 148 % of control and the T/C (dose: 180.0 mg/kg/injection, schedule: Q02DX010 (ip), vehicle: steroid suspending solution, evaluated on day 5) was 143 % of control. For the same compound, the T/C (dose: 180.0 mg/kg/injection, schedule: Q02DX010 (ip), vehicle: steroid suspending solution, evaluated on day 30) was 139 % of control, the T/C (dose: 180.0 mg/kg/injection, schedule: Q ##X009 (ip), vehicle: steroid suspending solution) was 133 % of control and the T/C (dose: 180.0 mg/kg/injection, schedule: Q## X009 (ip), vehicle: steroid suspending solution, evaluated on day 5) was 143 % of control. For the same compound, the T/C (dose: 180.0 mg/kg/injection, schedule: Q## X009 (ip), vehicle: steroid suspending solution, evaluated on day 30) was 130 and 139 % of control, the T/C (dose: 182.0 mg/kg/injection, schedule: Q01DX009 (ip), vehicle: saline with Tween-80, evaluated on day 5) was 135 and 144 % of control and the T/C (dose: 182.0 mg/kg/injection, schedule: Q01DX009 (ip), vehicle: saline with Tween-80, evaluated on day 60) was 135 and 144 % of control. The T/C (dose: 194.0 mg/kg/injection, schedule: Q01DX009 (ip), vehicle: carboxymethylcellulose (CMC)) was 148 % of control, the T/C (dose: 200.0 mg/kg/injection, schedule: Q01DX001 (ip), vehicle: carboxymethylcellulose (CMC)) was 142 % of control and the T/C (dose: 200.0 mg/kg/injection, schedule: Q01DX009 (ip), vehicle: Klucel (hydroxypropylcellulose) (HPC), evaluated on day 20) was 147 % of control [5 of 6 alive]. The T/C (dose: 200.0 mg/kg/injection, schedule: Q01DX009 (ip), vehicle: Klucel (hydroxypropylcellulose) (HPC), evaluated on day 30) was 114, 115, 120 (2×), 122, 124, 125, 142, 144, 146, 158, 161, 185 % of control, the T/C (dose: 200.0 mg/kg/injection, schedule: Q01DX009 (ip), vehicle: water) was 149 % of control and the survivor count (dose: 200.0 mg/kg/injection, schedule: Q01DX010 (ip), vehicle: clinical formulation) was 6 of 6. The T/C (dose: 200.0 mg/kg/injection, schedule: Q01DX Z (ip), vehicle: carboxymethylcellulose (CMC)) was 135 and 147 % of control, the T/C (dose: 200.0 mg/kg/injection, schedule: Q01DX Z (oral), vehicle: carboxymethylcellulose (CMC)) was 142 % of control and the T/C (dose: 200.0 mg/kg/injection, schedule: Q01DX Z (sc), vehicle: carboxymethylcellulose (CMC)) was 130 % of control. The T/C (dose: 200.0 mg/kg/injection, schedule: Q04DX002 (ip), vehicle: Klucel (hydroxypropylcellulose) (HPC)) was 129 % of control, the T/C (dose: 200.0 mg/kg/injection, schedule: Q04DX003 (ip), vehicle: Klucel (hydroxypropylcellulose) (HPC)) was 107, 108, 109, 117, 121, 131, 138 % of control and the T/C (dose: 200.0 mg/kg/injection, schedule: Q04DX003 (ip), vehicle: other) was 128 % of control. The T/C (dose: 200.0 mg/kg/injection, schedule: Q07DX003 (oral), vehicle: other) was 125 % of control, the T/C (dose: 200.0 mg/kg/injection, schedule: Q## X005 (ip), vehicle: carboxymethylcellulose (CMC)) was 142 % of control and the survivor count (dose: 200.0 mg/kg/injection, schedule: Q#A X Z (ip), vehicle: carboxymethylcellulose (CMC)) was 6 of 6. For the same compound, the T/C (dose: 232.0 mg/kg/injection, schedule: Q04DX002 (ip), vehicle: carboxymethylcellulose (CMC)) was 115, 116, 123, 125 % of control, the T/C (dose: 250.0 mg/kg/injection, schedule: Q01DX001 (ip), vehicle: carboxymethylcellulose (CMC)) was 125 and 129 % of control and the T/C [1] was 92, 100, 101 % of control [4 of 6 alive]. The survivor count [1] was 4 of 6, 5 of 6, 6 of 6, the T/C (dose: 256.0 mg/kg/injection, schedule: Q01DX005 (ip), vehicle: water) was 149 % of control and the T/C (dose: 296.0 mg/kg/injection, schedule: Q01DX001 (ip), vehicle: carboxymethylcellulose (CMC), evaluated on day 5) was 98 and 123 % of control. For the same compound, the T/C (dose: 296.0 mg/kg/injection, schedule: Q01DX001 (ip), vehicle: carboxymethylcellulose (CMC), evaluated on day 45) was 99 and 123 % of control, the T/C (dose: 300.0 mg/kg/injection, schedule: Q01DX009 (ip), vehicle: saline with Tween-80) was 126 % of control and the T/C (dose: 300.0 mg/kg/injection, schedule: Q01DX009 (ip), vehicle: steroid suspending solution) was 143 % of control. The survivor count (dose: 300.0 mg/kg/injection, schedule: Q01DX Z (ip), vehicle: carboxymethylcellulose (CMC)) was 5 of 6, the T/C (dose: 300.0 mg/kg/injection, schedule: Q01DX Z (ip), vehicle: steroid suspending solution) was 143 % of control [7 of 8 alive] and the T/C (dose: 300.0 mg/kg/injection, schedule: Q02DX009 (ip), vehicle: steroid suspending solution, evaluated on day 5) was 135 % of control. The T/C (dose: 300.0 mg/kg/injection, schedule: Q02DX009 (ip), vehicle: steroid suspending solution, evaluated on day 30) was 132 % of control, the T/C (dose: 300.0 mg/kg/injection, schedule: Q## X009 (ip), vehicle: steroid suspending solution) was 147 % of control and the T/C (dose: 364.0 mg/kg/injection, schedule: Q01DX009 (ip), vehicle: saline with Tween-80, evaluated on day 5) was 138 and 160 % of control. The T/C (dose: 364.0 mg/kg/injection, schedule: Q01DX009 (ip), vehicle: saline with Tween-80, evaluated on day 60) was 138 and 160 % of control, the T/C (dose: 400.0 mg/kg/injection, schedule: Q01DX001 (ip), vehicle: carboxymethylcellulose (CMC)) was 139 % of control and the T/C (dose: 400.0 mg/kg/injection, schedule: Q01DX001 (ip), vehicle: water) was 125 % of control. The survivor count (dose: 400.0 mg/kg/injection, schedule: Q01DX006 (iv), vehicle: carboxymethylcellulose (CMC)) was 0 of 6, the T/C (dose: 400.0 mg/kg/injection, schedule: Q01DX009 (ip), vehicle: Klucel (hydroxypropylcellulose) (HPC), evaluated on day 20) was 100 % of control and the T/C (dose: 400.0 mg/kg/injection, schedule: Q01DX009 (ip), vehicle: Klucel (hydroxypropylcellulose) (HPC), evaluated on day 30) was 94, 96, 109, 115, 125, 143, 144, 150, 154, 184 % of control. For the same compound, the survivor count (dose: 400.0 mg/kg/injection, schedule: Q01DX009 (ip), vehicle: Klucel (hydroxypropylcellulose) (HPC)) was 2 of 6 and 4 of 6, the survivor count (dose: 400.0 mg/kg/injection, schedule: Q01DX009 (ip), vehicle: other) was 0 of 6 and the T/C (dose: 400.0 mg/kg/injection, schedule: Q01DX009 (ip), vehicle: water) was 126 % of control [9 of 10 alive]. The survivor count (dose: 400.0 mg/kg/injection, schedule: Q01DX Z (ip), vehicle: carboxymethylcellulose (CMC)) was 4 of 6, the T/C (dose: 400.0 mg/kg/injection, schedule: Q04DX002 (ip), vehicle: Klucel (hydroxypropylcellulose) (HPC)) was 147 % of control and the T/C (dose: 400.0 mg/kg/injection, schedule: Q04DX003 (ip), vehicle: Klucel (hydroxypropylcellulose) (HPC)) was 104, 109 (2×), 110, 114, 142 [5 of 6 alive], 143 % of control. The T/C (dose: 400.0 mg/kg/injection, schedule: Q04DX003 (ip), vehicle: other) was 130 and 141 % of control, the T/C (dose: 400.0 mg/kg/injection, schedule: Q04DX003 (ip), vehicle: water) was 147 % of control and the T/C (dose: 400.0 mg/kg/injection, schedule: Q07DX003 (ip), vehicle: other) was 132 % of control. For the same compound, the T/C (dose: 400.0 mg/kg/injection, schedule: Q07DX003 (oral), vehicle: other) was 135 % of control.
